Values from PubChem BioAssay AID1259254 (NCATS, 2017).
This is an unselected part of about 59,000 deposited reagents. Of all reagents, about 1,550 (2.6%) got an active call. 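G2 share is only a proxy for re-replication; each gene was hit by three separate siRNAs, and active genes were retested.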 Raw values vary from plate to plate and are shown uncorrected. Entries without a mark were called inactive. The numbers tell different reagents against one gene apart. Not stated in the record: the amount of reagent.

Assay: 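Gene knock-downs that lead to re-replication, shown by excess G2 DNA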 (primary screen)
Cells: human HCT116 colorectal cancer cells
Knock-down reagent: single siRNA against human genes
Time to read-out: 3 days
Measurement: 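Nuclei stained with Hoechst and imaged; cell-cycle phase assigned by DNA content; G2 share scaled per plate, non-targeting siRNA 0%, GMNN siRNA 100%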
Direction: G2 robust z-score and G2 cells, % of GMNN control: higher = more G2 cells, more excess DNA replication; raw share of cells in G2: higher = larger share of cells with G2 DNA content
Rule for the call: 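An siRNA counts as active if its G2 robust z-score lies at least 5 MADs above the screen median; here such calls match roughly 38% of GMNN control or more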

The first 9 entries, ahead of the listing:
| Gene | reagent no. | G2 robust z-score | G2 cells, % of GMNN control | raw share of cells in G2 (%) |
| --- | --- | --- | --- | --- |
| DAGLA | 1 | -1 | -4.1 | 3.38 |
| DAGLA | 2 | 0.18 | 4.23 | 5.64 |
| DAGLA | 3 | 0.92 | 9.44 | 7.22 |
| RAD18 | 1 | 2.6 | 21.3 | 15.8 |
| RAD18 | 2 | -0.305 | 0.819 | 4.73 |
| RAD18 | 3 | -0.476 | -0.384 | 4.17 |
| SMPD5 | 1 | -0.103 | 2.24 | 4.63 |
| SMPD5 | 2 | -0.845 | -2.98 | 2.33 |
| SMPD5 | 3 | -0.867 | -3.13 | 3.49 |

The list itself, from the first entry:
| Gene | reagent no. | G2 robust z-score | G2 cells, % of GMNN control | raw share of cells in G2 (%) |
| --- | --- | --- | --- | --- |
| DAGLA | 1 | -1 | -4.1 | 3.38 |
| DAGLA | 2 | 0.18 | 4.23 | 5.64 |
| DAGLA | 3 | 0.92 | 9.44 | 7.22 |
| RAD18 | 1 | 2.6 | 21.3 | 15.8 |
| RAD18 | 2 | -0.305 | 0.819 | 4.73 |
| RAD18 | 3 | -0.476 | -0.384 | 4.17 |
| SMPD5 | 1 | -0.103 | 2.24 | 4.63 |
| SMPD5 | 2 | -0.845 | -2.98 | 2.33 |
| SMPD5 | 3 | -0.867 | -3.13 | 3.49 |
| EXOC5 | 1 | 1.69 | 14.9 | 10.8 |
| EXOC5 | 2 | 0.719 | 8.02 | 7.45 |
| EXOC5 | 3 | 2.6 | 21.2 | 11.1 |
| PRPF39 | 1 | -0.698 | -1.95 | 3.78 |
| PRPF39 | 2 | 1.4 | 12.8 | 9.45 |
| PRPF39 | 3 | 1.94 | 16.6 | 8.44 |
| ITGA3 | 1 | 0.977 | 9.84 | 9.43 |
| ITGA3 | 2 | -0.421 | 0.005 | 5.05 |
| ITGA3 | 3 | -0.193 | 1.61 | 4.79 |
| EDN1 | 1 | -0.889 | -3.29 | 4.04 |
| EDN1 | 2 | 1.26 | 11.9 | 9.77 |
| EDN1 | 3 | -0.629 | -1.46 | 3.14 |
| KLF3 | 1 | 1.5 | 13.5 | 7.57 |
| KLF3 | 2 | -0.656 | -1.65 | 5.16 |
| KLF3 | 3 | -0.702 | -1.97 | 3.01 |
| SCG5 | 1 | -0.891 | -3.3 | 2.86 |
| SCG5 | 2 | 0.755 | 8.28 | 8.47 |
| SCG5 | 3 | 1.07 | 10.5 | 8.14 |
| FGFR4 | 1 | 0.17 | 4.16 | 6.81 |
| FGFR4 | 2 | -1.09 | -4.71 | 4.05 |
| FGFR4 | 3 | -1.19 | -5.37 | 2.13 |
| EXOC8 | 1 | -0.553 | -0.922 | 3.52 |
| EXOC8 | 2 | 0.375 | 5.61 | 4.64 |
| EXOC8 | 3 | 0.98 | 9.86 | 6.51 |
| APOBEC3G | 1 | 0.316 | 5.19 | 6.11 |
| APOBEC3G | 2 | 0.088 | 3.59 | 5.62 |
| APOBEC3G | 3 | 3.45 | 27.2 | 16.9 |
| PKN3 | 1 | -0.585 | -1.15 | 3.31 |
| PKN3 | 2 | 2.03 | 17.2 | 10.9 |
| PKN3 | 3 | -0.942 | -3.66 | 3.86 |
| LYSMD1 | 1 | -0.397 | 0.174 | 4.71 |
| LYSMD1 | 2 | 1.84 | 15.9 | 9.22 |
| LYSMD1 | 3 | -0.403 | 0.134 | 3.46 |
| TTC9C | 1 | -0.591 | -1.19 | 4.2 |
| TTC9C | 2 | -0.423 | -0.00709 | 5.95 |
| TTC9C | 3 | -0.156 | 1.87 | 5.39 |
| FBXW4 | 1 | 1.62 | 14.4 | 11.1 |
| FBXW4 | 2 | 2.02 | 17.2 | 11 |
| FBXW4 | 3 | -0.973 | -3.88 | 1.95 |
| LOC642249 | 1 | 0.999 | 10 | 6.52 |
| LOC642249 | 2 | 0.652 | 7.56 | 6.54 |
| LOC642249 | 3 | -0.256 | 1.17 | 3.86 |
| LINC02389 | 1 | -0.905 | -3.4 | 3.38 |
| LINC02389 | 2 | 3.15 | 25.1 | 13 |
| LINC02389 | 3 | 1.51 | 13.6 | 8.9 |
| CEBPG | 1 | 1.14 | 11 | 8.89 |
| CEBPG | 2 | 3.11 | 24.9 | 14.1 |
| CEBPG | 3 | 0.135 | 3.92 | 5.45 |
| SAMD12 | 1 | -0.808 | -2.72 | 2.82 |
| SAMD12 | 2 | -0.303 | 0.833 | 3.85 |
| SAMD12 | 3 | -0.61 | -1.33 | 4.24 |
| HES4 | 1 | 0.301 | 5.08 | 7.75 |
| HES4 | 2 | -1.09 | -4.74 | 2.67 |
| HES4 | 3 | -1.09 | -4.73 | 2.51 |
| SLC29A4 | 1 | -0.0409 | 2.68 | 7.24 |
| SLC29A4 | 2 | -0.072 | 2.46 | 5.6 |
| SLC29A4 | 3 | -1.03 | -4.31 | 2.89 |
| TUBA8 | 1 | 9.28 (active) | 68.3 | 29.5 |
| TUBA8 | 2 | 0.976 | 9.83 | 10.4 |
| TUBA8 | 3 | -0.777 | -2.5 | 2.84 |
| INKA1 | 1 | 0.289 | 5 | 5.49 |
| INKA1 | 2 | -0.992 | -4.01 | 1.66 |
| INKA1 | 3 | 0.473 | 6.3 | 7.33 |
| KMT5C | 1 | -0.796 | -2.64 | 1.61 |
| KMT5C | 2 | -0.258 | 1.15 | 4.49 |
| KMT5C | 3 | 1.55 | 13.9 | 7.57 |
| LHFPL3 | 1 | 0.643 | 7.49 | 6.34 |
| LHFPL3 | 2 | 2.04 | 17.3 | 10.9 |
| LHFPL3 | 3 | 6.27 (active) | 47.1 | 24.8 |
| NSFP1 | 1 | -0.538 | -0.818 | 2.79 |
| NSFP1 | 2 | -0.473 | -0.359 | 3.79 |
| NSFP1 | 3 | -0.558 | -0.956 | 3.01 |
| ILK | 1 | 1.5 | 13.6 | 10.1 |
| ILK | 2 | 8.73 (active) | 64.4 | 27.1 |
| ILK | 3 | 1.29 | 12 | 8.26 |
| SIGLEC12 | 1 | -0.359 | 0.441 | 5.88 |
| SIGLEC12 | 2 | 0.999 | 10 | 9.26 |
| SIGLEC12 | 3 | 1.47 | 13.3 | 9.52 |
